This is one part of the list.

Protein sequences, listed by entry. Tags and fused reporters are not part of them.
UniProt Q0JBA9, entry or part of it: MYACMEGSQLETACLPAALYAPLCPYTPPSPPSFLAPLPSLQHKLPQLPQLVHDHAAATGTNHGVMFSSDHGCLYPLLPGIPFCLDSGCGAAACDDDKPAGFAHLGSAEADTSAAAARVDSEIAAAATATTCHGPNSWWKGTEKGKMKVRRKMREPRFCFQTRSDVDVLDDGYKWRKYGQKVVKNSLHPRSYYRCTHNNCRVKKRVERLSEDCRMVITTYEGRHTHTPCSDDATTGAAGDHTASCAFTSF

This test addresses OsWRKY34 (Oryza sativa, UniProt Q0JBA9 1-250). The experiment in a line: protein-binding microarray (RPBM); PBS, 2% BSA, 51.3 ng/ul salmon testes DNA, 50 uM zinc acetate, 200 nM TF, 25 C, 1 h; high values mean tight binding. The note with it: protein: recombinant; tags: N-terminal polyhistidine and DsRed monomer fusion (pET32a); label: CyDye5-dUTP incorporated in the synthesized complementary strand; 3' TTTTT single-stranded linker to array surface; dsDNA, one strand shown. The method in brief: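 Per-feature fluorescence intensity (arbitrary units), read on an Axon 4000B scanner, is the binding signal. Transcription factors carrying an N-terminal polyhistidine tag and DsRed fusion were expressed in E. coli BL21-CodonPlus and purified on Ni–NTA. A custom Agilent array, made double-stranded by primer extension with Cy5-dUTP and blocked with 2% BSA, was incubated with 200 nM protein in PBS, 2% BSA, salmon testes DNA and 50 µM zinc acetate at 25 °C for 1 h and then washed.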
With “GTGCAGTTGTCTTCTTCTGTTCTTTGGTCATATAGTAGTTCGGAGTCACCTAGTGCAG”, the binding signal is 14900 fluorescence intensity (a.u.).

On to “TTTCTTCATTTCATGATTGTATATTCTGGTGTTTTTGTGGCGGAGTCACCTAGTGCAG”, for which the binding signal was 9250 fluorescence intensity (a.u.).

Consider “GCACCACCAGATCTCCCTTGGACCGGTTCCATCGTCTCCGCGGAGTCACCTAGTGCAG”, for which the binding signal is 10200 fluorescence intensity (a.u.).

For “ACCTTTACCATATACAGTGTCTTCAATTTTTTTTTTTGGTCGGAGTCACCTAGTGCAG”, the binding signal is 9610 fluorescence intensity (a.u.).

As to “TTTCATGGAGCCAAGTTAGCGCTTTTTTTTCCTTTTCTTCCGGAGTCACCTAGTGCAG”, the binding signal is 8730 fluorescence intensity (a.u.).

Take “GGAAGGGGTGGAACAGTAGATGTTTAGCCTACAGGAAAGTCGGAGTCACCTAGTGCAG”: the binding signal was 8560 fluorescence intensity (a.u.).

For “GAGATCATTTTCCCTCGCTTCGGAACACCGAGAATGGTGACGGAGTCACCTAGTGCAG”, the binding signal is 8490 fluorescence intensity (a.u.).

Regarding “TTTGAATCCGTCAACTATTTTCCTTTGATCGTGTCGTGCCCGGAGTCACCTAGTGCAG”, the binding signal is 12000 fluorescence intensity (a.u.).

Regarding “GACTTTCTAGCATTGCCCATATTCATATAGATGTTAATGACGGAGTCACCTAGTGCAG”, the binding signal was 8260 fluorescence intensity (a.u.).

For the sequence “AAACCTCTCATGTTCATCTCAATTTTCTCAGTTGTGCATTCGGAGTCACCTAGTGCAG”, the binding signal is 10200 fluorescence intensity (a.u.).

Take “GTTTGTCTTTCTGAATCTGCTTGATTTCCTAGTTGCATGTCGGAGTCACCTAGTGCAG”: the binding signal was 11400 fluorescence intensity (a.u.).

“CCATTTCCTTGCAAGTCGTACATATACACAGTTACACACACGGAGTCACCTAGTGCAG”: the binding signal was 8180 fluorescence intensity (a.u.).

“TGCCACCTTCTTCATCTCCTACCTCGTCCTACTCCTATCACGGAGTCACCTAGTGCAG”: the binding signal was 8640 fluorescence intensity (a.u.).

Take “TTTTATCACCATGTATTGCCCTCTTTCTATCTTGTAAGCTCGGAGTCACCTAGTGCAG”: the binding signal is 10400 fluorescence intensity (a.u.).

For the sequence “TTGAAAAGTCAACGGCGTCAAATATTTAGAGATGGAGGCACGGAGTCACCTAGTGCAG”, the binding signal is 8910 fluorescence intensity (a.u.).

Regarding “TATCATCCCACTGTACCACTGGCTGCTTATTAATCGGCAACGGAGTCACCTAGTGCAG”, the binding signal is 9100 fluorescence intensity (a.u.).

“GTGTATTAAGAAAACACATACTCTATTCGTTTTTCATATTCGGAGTCACCTAGTGCAG”: the binding signal was 8100 fluorescence intensity (a.u.).

As for “CTTTTTTAAATCCTCCACTCTCATGTTATCTAATCCTATTCGGAGTCACCTAGTGCAG”, the binding signal was 9390 fluorescence intensity (a.u.).

With “GATTTGGATTTTGCAGCTCAGGGTTCTATTCAATTTGGGGCGGAGTCACCTAGTGCAG”, the binding signal is 9000 fluorescence intensity (a.u.).

With “CACCCTGCCATTGCTGTGTATTTAAGTGGCATTGTCTGTCCGGAGTCACCTAGTGCAG”, the binding signal is 8530 fluorescence intensity (a.u.).

Regarding “CCACTGATACATTGTTGTTCCATGCCAGCATGCCTTTTATCGGAGTCACCTAGTGCAG”, the binding signal is 8220 fluorescence intensity (a.u.).

For “ATTCGATTCCTCACTTGCCTTGCCGCCCTCATTTTCCTCACGGAGTCACCTAGTGCAG”, the binding signal is 8500 fluorescence intensity (a.u.).

As to “CGGCGAGTTCGATCGATCGGTGTATACGCGTATCGTGTTGCGGAGTCACCTAGTGCAG”, the binding signal was 8300 fluorescence intensity (a.u.).

As for “TTCTTTTTTTTTTCTTTTGCTATTCCAGGCGTTTGCGGGGCGGAGTCACCTAGTGCAG”, the binding signal was 11300 fluorescence intensity (a.u.).

With “AGAAAAGAATCTACAGTACCCACATGGCATACTCTCTTTTCGGAGTCACCTAGTGCAG”, the binding signal was 9950 fluorescence intensity (a.u.).

Take “AACAGGAGGAGGAGGAGGAGGAGGAGGAGGAGAGGTGGGGCGGAGTCACCTAGTGCAG”: the binding signal was 9280 fluorescence intensity (a.u.).

As for “CCTCTTTGTGTTCTGGCAGAAGTCTATGTCCCGCGATGAACGGAGTCACCTAGTGCAG”, the binding signal was 11700 fluorescence intensity (a.u.).

“TATGGCCCCGCGCGTCGCCCGCTTCTGCCGACCGCCGCTCCGGAGTCACCTAGTGCAG”: the binding signal is 8170 fluorescence intensity (a.u.).

On to “CGTATTAGGTATTTAGCGTCGGTGGCGTCTCTCCTAACCTCGGAGTCACCTAGTGCAG”, for which the binding signal is 8440 fluorescence intensity (a.u.).

With “ATTGTTTTCCCCGAACATTGGAGTCGTGTTTGGTTGGTATCGGAGTCACCTAGTGCAG”, the binding signal was 8690 fluorescence intensity (a.u.).

As to “GGCCACACCACACAGGATGGAACCCCAACCCTCGCTCAATCGGAGTCACCTAGTGCAG”, the binding signal was 8170 fluorescence intensity (a.u.).

Take “TGACATGTAGGTCGAACTCGAACGTCTCGAGGGTTTTGACCGGAGTCACCTAGTGCAG”: the binding signal is 9630 fluorescence intensity (a.u.).

“TATCCTCTCTACTTTTTCTTAACCTGCACGCTCATGTTGTCGGAGTCACCTAGTGCAG”: the binding signal is 8710 fluorescence intensity (a.u.).

Turning to “GAATAAAAAAACGTCACATCATTTAATCGTCTTAAGATTACGGAGTCACCTAGTGCAG”, the binding signal was 8120 fluorescence intensity (a.u.).

Regarding “TTCCCAGTTCACTTGACAGCTCGCAAGGATCCATATGACACGGAGTCACCTAGTGCAG”, the binding signal is 9160 fluorescence intensity (a.u.).

For the sequence “CTCTCTCTCCAATTCCTCCTCGCCTCGGTTGTTTCGTCCCCGGAGTCACCTAGTGCAG”, the binding signal is 8080 fluorescence intensity (a.u.).

On to “ACAGTACTCCTAGTCAAACCCTCTGTTCACCAGTCCGTCGCGGAGTCACCTAGTGCAG”, for which the binding signal was 8420 fluorescence intensity (a.u.).

Consider “GCTACATAATACTACAGAGGCTAGAGGGGCTAATATGAAACGGAGTCACCTAGTGCAG”, for which the binding signal was 8620 fluorescence intensity (a.u.).

As for “TTATCCCTTTTTTTCTCCTTTCTTATCCCTTTTTTTTTCTCGGAGTCACCTAGTGCAG”, the binding signal was 13800 fluorescence intensity (a.u.).

As for “GTCCTCACCGTCCCCGACCCTCCGCCCACCACTCCCTCGGCGGAGTCACCTAGTGCAG”, the binding signal is 10700 fluorescence intensity (a.u.).

“AACGAATTGTTAATTTTAAAAAAGTCAACGGTGTTAAATACGGAGTCACCTAGTGCAG”: the binding signal was 11800 fluorescence intensity (a.u.).

Regarding “GGTCTATGAGCAGTCATTGGTTCGGGTTGAGGTGAATTTACGGAGTCACCTAGTGCAG”, the binding signal is 12300 fluorescence intensity (a.u.).
